Measurements reported in doi:10.1101/2023.01.03.522557.

Sequences of proteins named here, by UniProt entry; tags and fusion partners are left off.
UniProt A2AG58: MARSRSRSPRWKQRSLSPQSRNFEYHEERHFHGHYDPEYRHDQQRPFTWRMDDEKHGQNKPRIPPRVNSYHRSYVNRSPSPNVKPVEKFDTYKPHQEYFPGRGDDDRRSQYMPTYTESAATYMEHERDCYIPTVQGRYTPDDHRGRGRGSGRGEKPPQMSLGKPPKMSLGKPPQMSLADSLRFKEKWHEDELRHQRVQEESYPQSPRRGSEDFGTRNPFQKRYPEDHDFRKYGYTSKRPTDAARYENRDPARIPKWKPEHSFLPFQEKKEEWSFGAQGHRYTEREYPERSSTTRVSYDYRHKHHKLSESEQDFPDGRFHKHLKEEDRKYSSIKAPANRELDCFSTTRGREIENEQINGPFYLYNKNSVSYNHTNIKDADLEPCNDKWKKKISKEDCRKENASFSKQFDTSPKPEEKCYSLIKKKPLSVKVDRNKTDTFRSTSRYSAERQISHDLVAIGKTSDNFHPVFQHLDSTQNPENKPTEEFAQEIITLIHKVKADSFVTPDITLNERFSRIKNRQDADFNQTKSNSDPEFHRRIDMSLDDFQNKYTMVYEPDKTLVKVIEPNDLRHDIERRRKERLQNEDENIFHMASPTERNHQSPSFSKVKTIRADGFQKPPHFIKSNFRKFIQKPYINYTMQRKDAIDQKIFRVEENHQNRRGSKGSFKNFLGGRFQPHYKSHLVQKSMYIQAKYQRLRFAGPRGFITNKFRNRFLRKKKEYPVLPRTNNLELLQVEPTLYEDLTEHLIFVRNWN
UniProt Q91VC3: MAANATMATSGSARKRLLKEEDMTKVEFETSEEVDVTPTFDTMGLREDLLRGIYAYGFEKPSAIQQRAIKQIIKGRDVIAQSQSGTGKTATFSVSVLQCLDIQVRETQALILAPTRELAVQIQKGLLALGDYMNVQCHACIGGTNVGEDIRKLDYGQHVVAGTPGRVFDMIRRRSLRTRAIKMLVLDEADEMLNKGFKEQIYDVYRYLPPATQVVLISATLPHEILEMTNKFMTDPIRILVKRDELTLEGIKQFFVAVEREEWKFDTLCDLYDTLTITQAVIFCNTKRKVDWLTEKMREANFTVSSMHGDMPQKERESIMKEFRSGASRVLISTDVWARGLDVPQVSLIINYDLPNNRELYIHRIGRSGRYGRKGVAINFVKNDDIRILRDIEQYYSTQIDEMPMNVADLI
UniProt Q9QX47: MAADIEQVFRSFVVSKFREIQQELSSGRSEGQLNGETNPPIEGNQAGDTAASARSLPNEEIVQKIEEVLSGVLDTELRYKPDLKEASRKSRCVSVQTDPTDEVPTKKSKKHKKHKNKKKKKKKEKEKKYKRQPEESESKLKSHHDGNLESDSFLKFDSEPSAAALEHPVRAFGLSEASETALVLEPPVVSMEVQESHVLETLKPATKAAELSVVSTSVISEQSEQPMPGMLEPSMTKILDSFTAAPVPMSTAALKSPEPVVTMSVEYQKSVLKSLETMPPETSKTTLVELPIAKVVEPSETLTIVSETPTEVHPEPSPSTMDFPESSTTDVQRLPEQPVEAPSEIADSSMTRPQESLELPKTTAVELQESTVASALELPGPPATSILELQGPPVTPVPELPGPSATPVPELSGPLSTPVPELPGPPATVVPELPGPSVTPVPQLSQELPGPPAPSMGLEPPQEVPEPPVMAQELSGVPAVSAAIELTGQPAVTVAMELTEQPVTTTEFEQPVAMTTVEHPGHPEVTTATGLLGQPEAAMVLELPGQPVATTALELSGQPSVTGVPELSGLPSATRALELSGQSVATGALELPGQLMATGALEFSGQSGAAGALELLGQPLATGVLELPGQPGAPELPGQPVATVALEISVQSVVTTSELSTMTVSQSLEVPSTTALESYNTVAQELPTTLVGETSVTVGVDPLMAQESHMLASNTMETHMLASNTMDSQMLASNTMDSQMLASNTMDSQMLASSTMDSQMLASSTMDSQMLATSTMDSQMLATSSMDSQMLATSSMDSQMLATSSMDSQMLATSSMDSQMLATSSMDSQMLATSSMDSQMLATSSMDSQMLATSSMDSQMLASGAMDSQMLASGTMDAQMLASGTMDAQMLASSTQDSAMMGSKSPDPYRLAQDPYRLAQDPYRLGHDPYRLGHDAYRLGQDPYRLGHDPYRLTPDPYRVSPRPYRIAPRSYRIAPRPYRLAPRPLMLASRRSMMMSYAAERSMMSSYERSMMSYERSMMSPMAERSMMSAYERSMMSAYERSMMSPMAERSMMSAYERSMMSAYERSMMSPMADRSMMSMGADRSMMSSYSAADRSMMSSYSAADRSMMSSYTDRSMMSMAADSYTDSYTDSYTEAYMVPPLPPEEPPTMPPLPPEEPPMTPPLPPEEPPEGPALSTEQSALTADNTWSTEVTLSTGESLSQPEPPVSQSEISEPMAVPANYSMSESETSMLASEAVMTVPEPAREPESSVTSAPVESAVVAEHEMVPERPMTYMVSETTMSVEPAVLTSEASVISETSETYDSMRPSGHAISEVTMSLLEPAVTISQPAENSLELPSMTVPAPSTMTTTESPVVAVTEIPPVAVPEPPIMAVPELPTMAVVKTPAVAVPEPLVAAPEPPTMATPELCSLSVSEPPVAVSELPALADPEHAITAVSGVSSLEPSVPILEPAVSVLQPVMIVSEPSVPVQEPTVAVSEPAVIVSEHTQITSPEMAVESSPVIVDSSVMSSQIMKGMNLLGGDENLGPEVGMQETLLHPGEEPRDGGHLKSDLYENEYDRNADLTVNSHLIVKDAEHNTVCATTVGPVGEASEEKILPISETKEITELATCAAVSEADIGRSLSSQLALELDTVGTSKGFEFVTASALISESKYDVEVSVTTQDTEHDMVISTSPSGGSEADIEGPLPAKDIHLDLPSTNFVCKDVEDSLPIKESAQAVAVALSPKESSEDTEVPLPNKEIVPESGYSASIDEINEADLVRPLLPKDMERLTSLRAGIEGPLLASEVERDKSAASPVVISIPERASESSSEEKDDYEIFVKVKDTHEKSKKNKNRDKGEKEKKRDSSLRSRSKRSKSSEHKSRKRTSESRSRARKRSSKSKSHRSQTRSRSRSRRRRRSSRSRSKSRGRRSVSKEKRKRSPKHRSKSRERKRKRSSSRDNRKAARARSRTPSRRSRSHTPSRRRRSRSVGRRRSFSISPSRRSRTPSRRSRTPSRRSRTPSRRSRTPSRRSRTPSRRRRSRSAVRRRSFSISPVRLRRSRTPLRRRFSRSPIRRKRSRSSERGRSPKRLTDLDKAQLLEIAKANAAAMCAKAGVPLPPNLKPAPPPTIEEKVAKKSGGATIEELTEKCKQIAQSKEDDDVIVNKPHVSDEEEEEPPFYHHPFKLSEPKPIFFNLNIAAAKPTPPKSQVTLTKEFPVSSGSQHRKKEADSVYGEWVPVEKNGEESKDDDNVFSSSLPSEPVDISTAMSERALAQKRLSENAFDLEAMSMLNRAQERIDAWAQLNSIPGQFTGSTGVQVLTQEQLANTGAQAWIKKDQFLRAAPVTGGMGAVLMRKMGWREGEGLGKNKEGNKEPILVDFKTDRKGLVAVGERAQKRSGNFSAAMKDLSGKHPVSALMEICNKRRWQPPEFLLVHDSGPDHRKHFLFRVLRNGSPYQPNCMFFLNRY
UniProt Q8BTI8: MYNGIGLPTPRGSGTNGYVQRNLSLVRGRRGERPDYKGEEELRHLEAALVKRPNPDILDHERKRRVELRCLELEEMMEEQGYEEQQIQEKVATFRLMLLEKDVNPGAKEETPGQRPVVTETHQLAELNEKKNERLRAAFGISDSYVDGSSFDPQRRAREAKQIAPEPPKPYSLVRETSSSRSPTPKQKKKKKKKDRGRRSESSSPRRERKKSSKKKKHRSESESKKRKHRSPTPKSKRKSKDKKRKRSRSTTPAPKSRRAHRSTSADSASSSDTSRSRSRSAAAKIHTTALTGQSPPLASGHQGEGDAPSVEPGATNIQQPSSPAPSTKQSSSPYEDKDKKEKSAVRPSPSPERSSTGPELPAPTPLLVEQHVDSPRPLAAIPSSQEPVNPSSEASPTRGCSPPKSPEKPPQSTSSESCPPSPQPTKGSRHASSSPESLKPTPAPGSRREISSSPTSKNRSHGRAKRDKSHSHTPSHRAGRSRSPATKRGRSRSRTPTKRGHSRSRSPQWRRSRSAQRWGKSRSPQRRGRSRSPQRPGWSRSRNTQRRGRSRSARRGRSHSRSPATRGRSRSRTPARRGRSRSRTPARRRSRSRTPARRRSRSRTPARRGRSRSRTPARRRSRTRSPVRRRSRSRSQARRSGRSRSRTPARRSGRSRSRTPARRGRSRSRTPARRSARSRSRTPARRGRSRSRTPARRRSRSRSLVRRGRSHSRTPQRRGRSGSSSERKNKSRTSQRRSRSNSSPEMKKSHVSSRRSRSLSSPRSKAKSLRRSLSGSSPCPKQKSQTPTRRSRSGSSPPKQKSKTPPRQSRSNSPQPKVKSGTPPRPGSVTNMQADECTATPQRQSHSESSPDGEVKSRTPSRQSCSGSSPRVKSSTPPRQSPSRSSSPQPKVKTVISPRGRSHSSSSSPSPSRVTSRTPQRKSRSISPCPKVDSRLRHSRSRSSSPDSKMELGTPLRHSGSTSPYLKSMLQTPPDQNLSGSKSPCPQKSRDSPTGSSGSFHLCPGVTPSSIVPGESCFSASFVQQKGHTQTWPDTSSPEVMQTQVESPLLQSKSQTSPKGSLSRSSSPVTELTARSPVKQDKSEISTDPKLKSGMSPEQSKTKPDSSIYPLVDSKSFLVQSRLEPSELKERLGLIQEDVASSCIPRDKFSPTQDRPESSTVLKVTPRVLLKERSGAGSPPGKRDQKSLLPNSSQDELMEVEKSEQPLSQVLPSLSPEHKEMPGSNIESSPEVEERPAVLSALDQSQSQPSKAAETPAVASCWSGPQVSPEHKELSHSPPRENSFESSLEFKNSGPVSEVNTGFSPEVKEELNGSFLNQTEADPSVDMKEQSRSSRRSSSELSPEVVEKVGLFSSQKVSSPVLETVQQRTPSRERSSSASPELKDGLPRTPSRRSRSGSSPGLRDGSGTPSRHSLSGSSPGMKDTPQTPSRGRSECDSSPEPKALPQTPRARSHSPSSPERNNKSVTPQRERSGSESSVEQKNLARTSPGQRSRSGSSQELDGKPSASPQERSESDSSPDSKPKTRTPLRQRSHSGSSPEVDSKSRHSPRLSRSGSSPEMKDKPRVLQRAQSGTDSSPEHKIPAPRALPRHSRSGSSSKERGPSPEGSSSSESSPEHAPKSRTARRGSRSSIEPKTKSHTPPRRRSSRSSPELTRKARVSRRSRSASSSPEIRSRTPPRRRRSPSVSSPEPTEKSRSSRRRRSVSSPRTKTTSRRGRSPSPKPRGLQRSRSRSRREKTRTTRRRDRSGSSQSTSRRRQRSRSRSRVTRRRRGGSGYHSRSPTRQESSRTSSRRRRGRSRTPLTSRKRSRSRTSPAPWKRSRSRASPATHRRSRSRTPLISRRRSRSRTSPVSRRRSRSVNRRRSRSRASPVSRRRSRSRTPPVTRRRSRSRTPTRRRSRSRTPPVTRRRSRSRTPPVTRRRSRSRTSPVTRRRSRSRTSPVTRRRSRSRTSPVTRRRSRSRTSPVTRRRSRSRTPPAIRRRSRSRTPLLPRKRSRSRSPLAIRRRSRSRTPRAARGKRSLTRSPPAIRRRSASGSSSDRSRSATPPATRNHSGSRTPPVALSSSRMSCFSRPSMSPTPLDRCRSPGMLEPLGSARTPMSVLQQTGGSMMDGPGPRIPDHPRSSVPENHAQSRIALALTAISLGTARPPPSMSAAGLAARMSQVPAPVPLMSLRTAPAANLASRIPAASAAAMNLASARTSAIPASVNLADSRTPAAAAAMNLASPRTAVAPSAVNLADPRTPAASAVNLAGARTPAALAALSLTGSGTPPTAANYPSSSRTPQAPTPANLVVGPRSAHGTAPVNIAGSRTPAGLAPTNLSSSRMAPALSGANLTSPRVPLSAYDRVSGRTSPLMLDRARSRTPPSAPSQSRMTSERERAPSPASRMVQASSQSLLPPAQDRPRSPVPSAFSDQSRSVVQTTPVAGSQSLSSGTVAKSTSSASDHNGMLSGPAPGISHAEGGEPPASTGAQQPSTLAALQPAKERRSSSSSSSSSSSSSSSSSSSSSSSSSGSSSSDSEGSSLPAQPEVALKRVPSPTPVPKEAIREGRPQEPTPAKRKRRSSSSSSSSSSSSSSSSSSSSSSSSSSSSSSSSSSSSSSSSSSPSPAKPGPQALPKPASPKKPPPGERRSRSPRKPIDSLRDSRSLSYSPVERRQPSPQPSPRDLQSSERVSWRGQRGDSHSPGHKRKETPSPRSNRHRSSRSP

Biological target: TOBF1-GFP (BAC tagged TOBF1-GFP mES cell line) (mouse) (UniProt A2AG58)
Test: affinity purification with mass spectrometry

Molecule	binding
EIF4A3 (from UniProt Q91VC3 1-411)	binds
RALY (from UniProt Q64012 1-312)	binds
SON (from UniProt Q9QX47 1-2444)	binds
SRRM2 (from UniProt Q8BTI8 1-2703)	binds
hnRNP-K (from UniProt P61979 1-463)	binds
hnRNP-F (protein, UniProt Q9Z2X1 1-415) MMLGPEGGEGYVVKLRGLPWSCSIEDVQNFLSDCTIHDGVAGVHFIYTREGRQSGEAFVELESEDDVKLALKKDRESMGHRYIEVFKSHRTEMDWVLKHSGPNSADSANDGFVRLRGLPFGCTKEEIVQFFSGLEIVPNGITLPVDPEGKITGEAFVQFASQELAEKALGKHKERIGHRYIEVFKSSQEEVRSYSDPPLKFMSVQRPGPYDRPGTARRYIGIVKQAGLDRMRSGAYSAGYGGYEEYSGLSDGYGFTTDLFGRDLSYCLSGMYDHRYGDSEFTVQSTTGHCVHMRGLPYKATENDIYNFFSPLNPVRVHIEIGPDGRVTGEADVEFATHEEAVAAMSKDRANMQHRYIELFLNSTTGASNGAYSSQVMQGMGVSAAQATYSGLESQSVSGCYGAGYSGQNSMGGYD	binds

These are yes or no findings as the source states them, for the method shown. Binding seen in cells or lysates may run through a third protein. Here binding means that the protein was enriched with, or labelled near, the bait; the list need not be complete.
